In patent publication EP1516629B1:
Changes are numbered by the printed parent chain. No constants are given. Whether binding was seen depends on the method and setting. Some entries that bind do so weakly or less than the wild type. For some assays here: Tags and fused reporters may be left off the sequences shown.

B1: H3 variant IgG1 (antibody, V domains shown)
VH: EVQLVESGGGLVQPGGSLRLSCAASGYSFTGHWMNWVRQAPGKGLEWVGMIHPSDSETRYNQKFKDRFTISVDKSKNTLYLQMNSLRAEDTAVYYCARGIAFAGTTYFDYWGQGTLVTVSS
VL: DIQMTQSPSSLSASVGDRVTITCRASKTISKYLAWYQQKPGKAPKLLIYSGSTLQSGVPSRFSGSGSGTDFTLTISSLQPEDFATYYCQQHNEYPLTFGQGTKVEIK
B2: rhesus-binding MHM24 (RhIgG1), variant H2C12 (antibody, V domains shown)
VH: B1 VH with H52A, S54A, D55S, E57S, A101Y, A103Y
VL: DIQMTQSPSSLSASVGDRVTITCRASKTISKYLAWYQQKPGKAPKLLIYSGSTLQSGVPSRFSGSGSGTDFTLTISSLQPEDFATYYCQQHNEYPLTFGQGTKVEIKR
B3: AspH54Glu variant IgG1 (antibody, V domains shown)
VH: B1 VH with D55E, A101Y, A103Y
VL: B1 VL
B4: AspH54Arg variant IgG1 (antibody, V domains shown)
VH: B1 VH with D55R, A101Y, A103Y
VL: B1 VL
B5: AspH54His variant IgG1 (antibody, V domains shown)
VH: B1 VH with D55H, A101Y, A103Y
VL: B1 VL
B6: AspH54Thr variant IgG1 (antibody, V domains shown)
VH: B1 VH with D55T, A101Y, A103Y
VL: B1 VL
B7: AspH54Met variant IgG1 (antibody, V domains shown)
VH: B1 VH with D55M, A101Y, A103Y
VL: B1 VL
B8: AspH54Leu variant IgG1 (antibody, V domains shown)
VH: B1 VH with D55L, A101Y, A103Y
VL: B1 VL
B9: H1 variant IgG1 (antibody, V domains shown)
VH: B1 VH with S28A, T30A, H32A, A101Y, A103Y
VL: B1 VL
B10: SerH28Ala variant IgG1 (antibody, V domains shown)
VH: B1 VH with S28A, A101Y, A103Y
VL: B1 VL
B11: HisH32Ala variant IgG1 (antibody, V domains shown)
VH: B1 VH with H32A, A101Y, A103Y
VL: B1 VL
B12: TrpH33Ala variant IgG1 (antibody, V domains shown)
VH: B1 VH with W33A, A101Y, A103Y
VL: B1 VL

Target: T1, human CD11a (human) (UniProt P20701)
T1 sequence (looked up): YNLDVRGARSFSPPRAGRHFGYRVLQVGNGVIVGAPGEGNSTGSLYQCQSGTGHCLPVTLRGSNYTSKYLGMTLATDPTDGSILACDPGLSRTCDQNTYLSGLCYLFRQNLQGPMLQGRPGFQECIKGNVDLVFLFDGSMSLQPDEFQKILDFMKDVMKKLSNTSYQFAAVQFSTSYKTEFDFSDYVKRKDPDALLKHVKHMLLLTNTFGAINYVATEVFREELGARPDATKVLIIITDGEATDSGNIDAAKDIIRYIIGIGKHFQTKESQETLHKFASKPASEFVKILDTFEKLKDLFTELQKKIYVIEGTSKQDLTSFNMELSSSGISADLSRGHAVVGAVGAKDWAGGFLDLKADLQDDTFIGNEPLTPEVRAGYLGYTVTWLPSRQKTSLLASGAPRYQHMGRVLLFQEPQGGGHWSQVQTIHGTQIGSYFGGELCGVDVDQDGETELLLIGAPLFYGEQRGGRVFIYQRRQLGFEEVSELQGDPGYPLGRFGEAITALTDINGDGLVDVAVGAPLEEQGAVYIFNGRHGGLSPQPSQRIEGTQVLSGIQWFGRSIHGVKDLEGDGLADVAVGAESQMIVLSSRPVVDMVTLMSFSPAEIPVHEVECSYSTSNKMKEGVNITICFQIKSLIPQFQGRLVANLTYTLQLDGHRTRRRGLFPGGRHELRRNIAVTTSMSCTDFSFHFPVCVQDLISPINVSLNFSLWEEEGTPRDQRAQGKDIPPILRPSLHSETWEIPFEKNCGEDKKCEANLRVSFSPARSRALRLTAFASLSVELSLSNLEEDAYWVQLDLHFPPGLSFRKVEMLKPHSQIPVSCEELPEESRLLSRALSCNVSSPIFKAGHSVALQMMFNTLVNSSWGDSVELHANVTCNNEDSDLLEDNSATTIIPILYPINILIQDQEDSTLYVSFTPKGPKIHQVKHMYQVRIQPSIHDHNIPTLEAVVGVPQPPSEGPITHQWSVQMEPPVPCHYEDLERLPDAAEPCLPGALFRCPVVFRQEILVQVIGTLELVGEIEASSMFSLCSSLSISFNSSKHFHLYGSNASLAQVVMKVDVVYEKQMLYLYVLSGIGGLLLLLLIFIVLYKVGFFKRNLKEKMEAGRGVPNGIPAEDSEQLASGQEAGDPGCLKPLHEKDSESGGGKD
Assay: FACScan, Jurkat cells

For B1, which binding is on record?
Its binding is “no binding (tested: Var.EC50/HuIgG1 EC50 >900)”.

Target: T2, rhesus CD11a (rhesus) (UniProt H9Z8N3)
T2 sequence: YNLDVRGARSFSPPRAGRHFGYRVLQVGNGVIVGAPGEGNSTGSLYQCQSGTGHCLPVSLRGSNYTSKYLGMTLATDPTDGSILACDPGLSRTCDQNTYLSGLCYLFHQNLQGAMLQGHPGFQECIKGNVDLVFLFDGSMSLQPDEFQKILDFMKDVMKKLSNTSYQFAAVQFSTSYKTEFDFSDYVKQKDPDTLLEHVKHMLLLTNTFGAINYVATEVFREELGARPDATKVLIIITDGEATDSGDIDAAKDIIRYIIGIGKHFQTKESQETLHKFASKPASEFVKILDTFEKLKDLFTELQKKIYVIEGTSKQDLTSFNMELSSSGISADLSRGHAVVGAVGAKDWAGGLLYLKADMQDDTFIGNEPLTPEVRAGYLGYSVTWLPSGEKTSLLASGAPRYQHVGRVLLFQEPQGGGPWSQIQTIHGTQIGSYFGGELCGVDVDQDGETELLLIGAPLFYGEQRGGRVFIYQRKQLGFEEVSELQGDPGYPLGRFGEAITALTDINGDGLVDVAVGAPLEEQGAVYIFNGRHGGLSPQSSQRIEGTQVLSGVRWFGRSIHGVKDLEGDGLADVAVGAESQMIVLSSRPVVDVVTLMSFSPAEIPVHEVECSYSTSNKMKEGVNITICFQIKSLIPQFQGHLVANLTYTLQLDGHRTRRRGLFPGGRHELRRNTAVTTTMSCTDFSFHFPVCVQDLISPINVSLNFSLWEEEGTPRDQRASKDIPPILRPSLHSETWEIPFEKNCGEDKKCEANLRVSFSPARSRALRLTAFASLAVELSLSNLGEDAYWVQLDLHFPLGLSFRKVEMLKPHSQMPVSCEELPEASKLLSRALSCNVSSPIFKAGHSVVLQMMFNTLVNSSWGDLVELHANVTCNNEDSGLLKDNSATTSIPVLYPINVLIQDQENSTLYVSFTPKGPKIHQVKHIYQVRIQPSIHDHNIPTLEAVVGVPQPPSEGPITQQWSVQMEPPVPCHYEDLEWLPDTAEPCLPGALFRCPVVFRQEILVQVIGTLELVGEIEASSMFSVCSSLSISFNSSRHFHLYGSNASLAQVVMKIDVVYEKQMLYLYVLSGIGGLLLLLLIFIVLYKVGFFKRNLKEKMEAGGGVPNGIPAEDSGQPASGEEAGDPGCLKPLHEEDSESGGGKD
Assay: saturation binding with and without 1 mg/ml human IgG1

Which binding does the source give for B2 here?
Its binding is “binds”.

Target: T2, rhesus CD11a (rhesus)
Assay: saturation binding, rhesus leukocytes

How did the binding turn out when B2 was run?
The binding was “binds”.

Target: T2, rhesus CD11a (rhesus)
Assay: binding to rhesus peripheral blood lymphocytes

Which binding does the source give for B1 here?
Its binding is “no binding (tested: greater than 10-fold weaker than HuIgG1)”.

Which binding does the source give for B3 here?
Its binding is “no binding (tested: Variant EC50/HuIgG1 EC50 >25)”.

B4 was tested. Which binding did it give?
Its binding is “no binding (tested: Variant EC50/HuIgG1 EC50 >25)”.

Which binding does the source give for B5 here?
Its binding is “no binding (tested: Variant EC50/HuIgG1 EC50 >25)”.

B6 was tested. Which binding did it give?
Its binding is “no binding (tested: Variant EC50/HuIgG1 EC50 >25)”.

With B7 as the binder, how does the binding read?
Its binding is “no binding (tested: Variant EC50/HuIgG1 EC50 >25)”.

B8 was tested. Which binding did it give?
Its binding is “no binding (tested: Variant EC50/HuIgG1 EC50 >25)”.

With B9 as the binder, how does the binding read?
The binding was “no binding (tested: greater than 10-fold weaker than HuIgG1)”.

B10 was tested. Which binding did it give?
The binding was “no binding (tested: greater than 10-fold weaker than HuIgG1)”.

How did the binding turn out when B11 was run?
Its binding is “no binding (tested: greater than 10-fold weaker than HuIgG1)”.

How did the binding turn out when B12 was run?
The binding was “no binding (tested: greater than 10-fold weaker than HuIgG1)”.
